Laboratory results taken from patent US20150284424 (published 2015).

Experiments:
[1] = general procedure: peptide synthesis; chloromethylated polystyrene; DIC; settings: whole synthesis, by HPLC analysis in the mixture, scale 1.3 mmoles eq.
[2] = general procedure: peptide synthesis; chloromethylated polystyrene resin; DIC; settings: 220 nm

Substance	crude mass [1] [mg]	crude HPLC purity ([2]; whole synthesis, isocratic HPLC) [%]	final purity (method not given) ([2]; oxidative folding step, HPLC, VYDAC C18, isocratic 26% CH3CN/0.1% TFA) [%]
H-D-β-Nal-Cys-(Acm)-Tyr-D-Trp-Lys-Val-Cys(Acm)-Thr-NH2	870	96	–
H-D-β-Nal-[Cys-Tyr-D-Trp-Lys-Val-Cys]-Thr-NH2	–	–	99
